Record: PubChem BioAssay AID504774 (Drosophila RNAi Screening Center, 2011)

Aim: 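Fly genes whose loss alters survival after alkylation damage to DNA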 (primary screen)
Cell system: Drosophila Kc167 cells
Knock-down reagent: long dsRNA against Drosophila genes, about 0.25 µg dsRNA per well
Duration: about 6 days: 3 days knock-down, then 3 days with or without MMS
Treatment: methyl methanesulphonate 0.004% (w/v) for 3 days after knock-down
Read-out: 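ATP-dependent luminescence as a measure of live cells in MMS-exposed wells, quantile normalised within each plate, with replicate values also given as a mean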
Scale: mean viability with MMS and viability with MMS: higher = more surviving cells after MMS
In all, the deposit lists about 23,000 reagents; shown is an unselected part of those with a known target gene and a result. 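Values are quantile-normalised luminescence on an arbitrary scale; higher means more cells surviving MMS.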 A plus sign joins genes that one reagent is predicted to hit. No sequences are given here.

gene | amplicon | mean viability with MMS | viability with MMS, replicate 1 | viability with MMS, replicate 2
Fancd2 | DRSC15208 | 3.58e6 | 4.13e6 | 3.98e6
Fancd2 | DRSC22763 | 3.49e6 | 3.97e6 | 3.98e6
mRpL44 (mitochondrial ribosomal protein L44) | DRSC12306 | 3.67e6 | 4.19e6 | 4.16e6
CG6431 | DRSC02956 | 3.45e6 | 3.93e6 | 3.88e6
CG16998 | DRSC10235 | 3.69e6 | 4.12e6 | 4.24e6
Vinc (Vinculin) | DRSC18728 | 3.54e6 | 4.05e6 | 3.99e6
Prtl99C (Protamine-like 99C) | DRSC15049 | 3.48e6 | 3.97e6 | 3.87e6
CG1638 | DRSC15132 | 3.44e6 | 3.89e6 | 3.92e6
CG6403 | DRSC16033 | 3.58e6 | 4.04e6 | 4.06e6
Trissin | DRSC14994 | 3.46e6 | 3.81e6 | 4.02e6
wac (wee Augmin) | DRSC08349 | 3.50e6 | 4.03e6 | 3.91e6
Muc14A (Mucin 14A) | DRSC23264 | 3.40e6 | 3.90e6 | 3.84e6
CG15278 | DRSC02481 | 3.64e6 | 3.83e6 | 4.39e6
CG42816 + CG42815 | DRSC11230 | 3.69e6 | 4.12e6 | 4.19e6
tai (taiman) | DRSC02207 | 2.96e6 | 3.54e6 | 3.56e6
tai (taiman) | DRSC02673 | 3.54e6 | 4.03e6 | 4.02e6
Khc (Kinesin heavy chain) | DRSC07448 | 3.64e6 | 4.08e6 | 4.19e6

The list goes on, starting with the last 2 of the part before.
gene | amplicon | mean viability with MMS | viability with MMS, replicate 1 | viability with MMS, replicate 2
tai (taiman) | DRSC02673 | 3.54e6 | 4.03e6 | 4.02e6
Khc (Kinesin heavy chain) | DRSC07448 | 3.64e6 | 4.08e6 | 4.19e6
alpha-Est4aPsi (pseudo) | DRSC12473 | 3.40e6 | 3.87e6 | 3.86e6
Ubi-p63E (Ubiquitin-63E) | DRSC22016 | 3.70e6 | 4.17e6 | 4.14e6
CG13022 | DRSC09902 | 3.59e6 | 4.03e6 | 4.10e6
gish (gilgamesh) | DRSC16154 | 3.70e6 | 4.15e6 | 4.19e6
CG10903 | DRSC14281 | 3.41e6 | 3.90e6 | 3.85e6
CG1909 | DRSC17150 | 3.58e6 | 4.06e6 | 4.05e6
CG2811 | DRSC04318 | 3.38e6 | 3.80e6 | 3.81e6
MED17 (Mediator complex subunit 17) | DRSC16889 | 3.22e6 | 3.71e6 | 3.67e6
Sce (Sex combs extra) | DRSC16825 | 3.69e6 | 4.30e6 | 4.04e6
Tim17a2 | DRSC12252 | 3.63e6 | 4.12e6 | 4.09e6
Cyp12b2 (Cytochrome P450 12b2) | DRSC07364 | 3.53e6 | 4.06e6 | 3.93e6
